Several values for one entry are separate records, joined by “and”; a condition that tells them apart may be missing. Equal entries are not always repeated. In all, about 400,000 compounds went through this assay and about 3,700 (0.93%) were called active. This list was built around the results that the source calls inconclusive (neither active nor inactive); the mix of calls is not that of the screen. Calls come from the whole dose curve; as a rule, active = well fitted inhibition curve with a large enough effect; inconclusive = small, poorly fitted or top-dose-only effect, or another doubt; inactive = no such curve, though single readings can be large or run the other way. Potencies beside an inconclusive call are fits to weak or partial responses and may not hold up. More than one record can exist for a structure, and the calls need not agree.
The compounds below were run against Vitamin D3 receptor (Homo sapiens) (UniProt P11473) (assay: Inhibitors of the vitamin D receptor (VDR): qHTS). Conditions: VDR-SRC2-3 peptide fluorescence polarization, 2 h; max response, negative = inhibition: stronger effect = lower value.
Summary of the method: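 Fluorescence polarization assay measuring small-molecule disruption of VDR binding to the coregulator peptide SRC2-3. Compounds were pin-transferred (23 nl) into the reagent mix and incubated 2 h at room temperature before reading.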
% is set by controls: 0 for no effect and ±100 for the full control effect; potency is the fitted concentration of half-maximal effect.

Sequences of proteins named here, by UniProt entry; tags and fusion partners are left off. A change or cut given only in a name is not applied to a line headed by its entry.
UniProt P11473: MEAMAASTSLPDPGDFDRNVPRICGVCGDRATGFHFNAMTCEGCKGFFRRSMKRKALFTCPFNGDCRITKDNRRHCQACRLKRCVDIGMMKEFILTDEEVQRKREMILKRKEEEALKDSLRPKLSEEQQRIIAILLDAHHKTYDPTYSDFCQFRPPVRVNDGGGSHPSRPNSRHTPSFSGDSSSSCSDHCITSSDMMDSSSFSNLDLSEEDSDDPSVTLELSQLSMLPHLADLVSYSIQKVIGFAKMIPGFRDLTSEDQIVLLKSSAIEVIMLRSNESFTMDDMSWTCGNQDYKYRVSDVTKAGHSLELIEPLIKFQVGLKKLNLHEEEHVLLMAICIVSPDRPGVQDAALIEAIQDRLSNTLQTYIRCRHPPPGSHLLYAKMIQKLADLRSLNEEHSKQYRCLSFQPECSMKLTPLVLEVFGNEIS

Compound | max response, negative = inhibition | Potency
O=Nc1c(-c2c(O)[nH]c3cc(Br)ccc23)[nH]c2ccccc12 | inactive: -16.7% and inactive: -27.9% | –
COC(=O)c1ccc(C(=O)NC2CCCc3c2cnn3-c2cc(F)cc(F)c2)nc1 (configuration not stated) | inactive: -13.2% | –
Cc1cc(-c2csc(NC(=O)c3ccccc3C(F)(F)F)n2)c(C)n1Cc1ccccc1 | inactive: 6.68% | –
COc1cc(Cl)c(C)cc1NC(=O)Cn1c(NCCO)nc2ccccc21 | – | inconclusive: 100 µM [inhibitor, single point]
CCOC(=O)c1sc(N2N=C(C)/C(=C\c3ccc(OCC(=O)OC)cc3)C2=O)nc1C | – | inconclusive: 56.2 µM [inhibitor, partial curve, poor fit]
COc1ccc(S(=O)(=O)N(CCc2ccccc2)CC(=O)O)cc1C | – | inconclusive: 89.1 µM [inhibitor, single point]
Cn1c(=O)n(C)c2cc(NS(=O)(=O)c3ccc(Br)cc3)c(NCc3ccccc3)cc21 | inactive: -12.8% | –
CCn1c(=O)n(CC)c2cc(N3CCCC3)c(NC(=O)c3cc(Br)ccc3OC)cc21 | – | inconclusive: 1.12 µM [inhibitor, full curve, poor fit]
Nc1n[nH]c2cccc(Cl)c12 | – | inconclusive: 89.1 µM [inhibitor, single point]
Fc1ccccc1/C=C/c1ccc2ccccc2n1 | – | inconclusive: 79.4 µM [inhibitor, single point]
COc1ccc(N(CC(=O)Nc2ccccc2C)S(=O)(=O)c2ccccc2[N+](=O)[O-])c(OC)c1 | – | inconclusive: 35.5 µM [inhibitor, single point]
CCOC(=O)c1ccc(N2C(=O)c3n[nH]c(-c4cccs4)c3C2c2cccc(F)c2)cc1 (configuration not stated) | – | inconclusive: 89.1 µM [inhibitor, partial curve, poor fit]
O=C(NNc1ccccc1)c1ccc(Cl)c(Cl)c1 | – | inconclusive: 79.4 µM [inhibitor, partial curve, poor fit]
CCc1ccc(C(=O)CSc2ncn[nH]2)cc1 | – | inconclusive: 63.1 µM [inhibitor, partial curve, poor fit]
Cc1ccc(C2C(C(=O)c3cc4ccccc4o3)=C(O)C(=O)N2CCN2CCOCC2)o1 (configuration not stated) | inactive: 0.86% | –
c1ccc(Cc2nnc3sc(-c4ccco4)nn23)cc1 | – | inconclusive: 63.1 µM [inhibitor, partial curve, poor fit]
O=C1CS(=O)(=O)N(Cc2ccc(F)cc2)c2ccccc21 | – | active: 79.4 µM
CCOc1cc(/C=C2\N=C(SC)SC2=O)cc([N+](=O)[O-])c1OC(C)=O | inactive: -7.55% | –
Cc1cccc(C(=O)Nc2nnc(-c3ccncc3)o2)c1 | inactive: -1.06% | –
CSc1ccccc1C(=O)Nc1cccc(C(C)=O)c1 | – | active: 39.8 µM
COc1cccc(NC(=O)C2CCN(S(=O)(=O)c3ccc4c(c3)NC(=O)CO4)CC2)c1 | – | inconclusive: 39.8 µM [inhibitor, single point]
Cc1c(Cl)c([N+](=O)[O-])nn1CCCC(=O)Nc1sc2c(c1C#N)CCC2 | – | inconclusive: 79.4 µM [inhibitor, partial curve, poor fit]
O=C(Nc1nc2c(s1)CCCC2)C1CCCN1C(=O)c1cccs1 (configuration not stated) | inactive: 3.03% | –

Compound | max response, negative = inhibition | Potency
CC1CCN(c2oc(-c3cccs3)nc2S(=O)(=O)c2ccc(Cl)cc2)CC1 | – | inconclusive: 89.1 µM [inhibitor, partial curve, poor fit]
O=C(CNC(=O)c1ccccc1)NCCCSc1ccccc1 | inactive: 8.85% | –
O=C(CSc1ccc(Cl)cc1)NC(=O)NCc1ccco1 | – | inconclusive: 56.2 µM [inhibitor, partial curve, poor fit]
N#Cc1c(-c2ccccc2)[nH]c(=O)[nH]c1=O | inactive: -7.18% | –
N#CC1(C#N)OC12CCS(=O)(=O)c1ccccc12 (configuration not stated) | – | inconclusive: 28.2 µM [inhibitor, partial curve, poor fit]
CCOC(=O)CCc1c(C)nc(SCC(=O)O)c(C#N)c1C | – | inconclusive: 50.1 µM [inhibitor, partial curve, poor fit]
O=C1C2C(C(=O)N1/N=C/c1cc(Br)cc([N+](=O)[O-])c1O)C1C=CC2C12CC2 (configuration not stated) | – | inconclusive: 79.4 µM [inhibitor, partial curve, poor fit]
O=C(O)CN1C(=O)/C(=C\c2cccc(OCc3ccc(Cl)cc3)c2)SC1=S | – | active: 50.1 µM
CN1C(c2ccc(F)cc2)=CS/C1=C(/C#N)c1nnc(N2CCOCC2)n1-c1ccccc1 | inactive: -124% | –
CCCCC(=O)/C=C/n1c(=S)oc2ccccc21 | – | active: 12.6 µM
O=C(CSc1ccccc1)Nc1nnc(COc2ccc(Cl)cc2)s1 | – | active: 39.8 µM
COc1ccc(/C=N/NC(=O)/C(=C/c2ccccc2)CCO)cc1 | – | inconclusive: 89.1 µM [inhibitor, single point]
CCCCOc1ccc(C(=O)CCN2CCOCC2)cc1 | – | active: 31.6 µM
COc1ccc(NC(=O)O/N=C/c2ccccc2Cl)cc1 | – | inconclusive: 79.4 µM [inhibitor, partial curve, poor fit]
CCn1c(C(=O)N2CCC(C(=O)NCCc3ccc(OC)cc3OC)CC2)cc2sccc21 | inactive: -1.18% | –
CCOC(=O)C1CCCN(CC(=O)Nc2cccc(C(C)=O)c2)C1 (configuration not stated) | inactive: -12.3% | –
COc1ccc(CNC(=O)CN(c2ccccc2)S(=O)(=O)N(C)C)cc1 | – | active: 89.1 µM
CCOc1cc(CNc2ccc(O)cc2)ccc1OCc1ccc(Cl)cc1 | – | inconclusive: 20 µM [inhibitor, full curve, poor fit]
O=C1OC(Nc2nc3ccccc3s2)c2ccccc21 (configuration not stated) | inactive: 4.41% | –
CCCn1nc([N+](=O)[O-])c(C(C#N)c2nc3ccccc3o2)c(Cl)c1=O (configuration not stated) | – | inconclusive: 56.2 µM [inhibitor, partial curve, poor fit]
Cc1ccc(C(=O)N2CCCC2)c(F)c1F | – | active: 44.7 µM
Cc1ccc(/C=N\NC(=O)CCc2n[nH]c(=O)[nH]c2=O)o1 | – | inconclusive: 25.1 µM [inhibitor, partial curve, poor fit]
O=C(Nc1cc(-c2nc3ncccc3o2)ccc1Cl)c1ccc([N+](=O)[O-])o1 | inactive: 17.7% | –

Compound | max response, negative = inhibition | Potency
COC(=O)C1CCN(C(=O)c2cc(-c3ccc(Cl)s3)nc3ccccc23)CC1 | inactive: 7.48% | –
O=C1[C@H]2CCC=C[C@H]2[C@H](c2cccc(Br)c2)N1Cc1ccccc1 | – | inconclusive: 89.1 µM [inhibitor, partial curve] and inconclusive: 56.2 µM [inhibitor, partial curve, poor fit]
CN1CCN(C(=S)c2ccc(N(C)C)cc2)CC1 | – | inconclusive: 89.1 µM [inhibitor, single point]
CC1=C(C)/C(=N\OC(=O)/C=C/c2ccccc2)C=CC1=O | – | inconclusive: 31.6 µM [inhibitor, single point]
CCOc1ccc(NC(=O)C(NC(=O)C2CCC(C)CC2)C(C)C)cc1 (configuration not stated) | – | inconclusive: 100 µM [inhibitor, partial curve, poor fit]
CCCc1c(OCCCCc2nn[nH]n2)ccc(C(C)=O)c1O | – | active: 44.7 µM
Cn1c(Cl)cnc1C1CC(=O)c2cc(Cl)ccc2O1 (configuration not stated) | – | active: 79.4 µM
CCOc1ccc(C(=O)NC(=S)Nc2cccnc2)cc1[N+](=O)[O-] | – | inconclusive: 50.1 µM [inhibitor, partial curve, poor fit]
O=C(Cc1cccs1)N/N=C/C=C/c1ccco1 | – | inconclusive: 89.1 µM [inhibitor, single point]
CSc1cccc(NC(=O)c2nnn(CC(=O)Nc3cc(C)cc(C)c3)c2N)c1 | – | inconclusive: 35.5 µM [inhibitor, single point]
CC[C@]12c3[nH]c4cc(CCC(=O)N(C)C)ccc4c3CCN1C(=O)[C@@H](CC(=O)NCC13CC4CC(CC(C4)C1)C3)C[C@@H]2C(=O)N1CCN(C(=O)c2ccco2)CC1 | inactive: -6.91% | –
NC(=O)c1c(NC(=O)c2ccccc2)sc2c1CCC2 | – | inconclusive: 89.1 µM [inhibitor, partial curve, poor fit]
CC(C)(C)Cc1nnc(NC(=O)c2ccc3c(c2)OCO3)s1 | – | inconclusive: 79.4 µM [inhibitor, partial curve, poor fit]
COCCN(CCOC)C(=O)C1CCN(c2ccc(S(=O)(=O)N3CCOCC3)cc2[N+](=O)[O-])CC1 | inactive: 3.42% | –
Oc1ccc(Br)cc1CNc1ccccn1 | – | inconclusive: 22.4 µM [inhibitor, single point]
CC(C)/C=C(/C(=O)c1ccc(Cl)cc1Cl)n1cncn1 | – | inconclusive: 89.1 µM [inhibitor, partial curve, poor fit]
CCOC(=O)C1(Cc2ccc(Cl)cc2)CCN(C2CCC2)CC1 | inactive: -3.92% | –
Cn1c(-c2ccccc2)nc2cnccc21 | – | inconclusive: 39.8 µM [inhibitor, single point]
O=C1NN(c2ccc(F)c(Cl)c2)C(=O)/C1=C\c1cccc(OC(=O)c2cccs2)c1 | – | active: 22.4 µM
N#Cc1ccc(-c2cccnc2)nc1SCc1ccc(Cl)cc1Cl | – | inconclusive: 3.16 µM [inhibitor, partial curve, poor fit]
O=[N+]([O-])c1cc(/C=N/NC(=S)Nc2ccccc2Cl)ccc1Cl | – | inconclusive: 89.1 µM [inhibitor, partial curve, poor fit]

From PubChem BioAssay AID504847 (National Center for Advancing Translational Sciences (NCATS), 2011)
